# Data: the supplement of paper PMC3334620
# Over roughly 33,000 sequences, “E-score (-0.5 to 0.5)” has its median near -0.0034; the highest 2% begin near 0.25. Some of the results follow.
# Target: T1, Yap3 (UniProt P38749)
# T1 sequence: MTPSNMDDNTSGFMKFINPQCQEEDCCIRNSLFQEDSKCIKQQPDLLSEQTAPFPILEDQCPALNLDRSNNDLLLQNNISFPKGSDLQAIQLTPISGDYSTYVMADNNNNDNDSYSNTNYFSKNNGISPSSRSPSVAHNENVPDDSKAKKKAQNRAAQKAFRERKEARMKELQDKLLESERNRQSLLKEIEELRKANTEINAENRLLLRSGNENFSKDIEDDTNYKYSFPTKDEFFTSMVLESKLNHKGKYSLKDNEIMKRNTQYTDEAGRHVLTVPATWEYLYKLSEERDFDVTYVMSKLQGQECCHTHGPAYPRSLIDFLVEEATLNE
# Assay: PBM E-score (8-mer binding enrichment) (E-score (-0.5 to 0.5)); higher = stronger / more preferred TF binding
# Conditions: protein concentration: 100 nM; construct: GST-full length
# Method in brief: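 The E-score, a modified Wilcoxon-Mann-Whitney statistic, was computed by the Universal PBM Analysis Suite for every ungapped eight-base word pooled with its reverse complement. Scans behind it were normalised with masliner after bound GST-tagged yeast transcription factors were detected with fluorescent anti-GST. The proteins, at about 100-200 nM, had been applied to universal all-10-mer Agilent arrays made double-stranded by primer extension.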
row,Sequence,PBM E-score
1,GGCCAAGA,-0.155
2,AACTAAGT,0.00048
3,CAAAAACC,0.111
4,GCATTACA,0.1
5,CTGACAGC,-0.133
6,GCTGGGGA,-0.231
7,CTCGCACA,0.0169
8,GGTACGAC,-0.107
9,CATCCCAA,0.0221
10,CAGACAGA,-0.0351
11,ACGATCAT,-0.017
12,CATATCTC,0.0984
13,GCCGAGAC,-0.159
14,GCACTCCA,-0.147
15,ACTTTCAG,-0.104
16,CACTCCGC,-0.0508
17,CTCGATGC,0.0133
18,GGCTACTA,0.073
19,CACGTGAA,0.0672
20,AAAATAAC,0.0743
21,AGCACACG,-0.108
22,AGTGGATC,-0.0685
23,ATATGGCG,0.0887
24,GGTCAAGA,-0.0355
25,CGCGGACC,0.00612

row,Sequence,PBM E-score
1,CCTACTAG,0.00115
2,CAGGATCA,-0.0432
3,CAGGGTAA,0.0173
4,TATGGAAA,0.226
5,CGCCGAAA,0.0968
6,CGGACATC,-0.153
7,ATCGCTTG,-0.066
8,AAGTACGT,0.159
9,CGGGATCA,-0.111
10,CCTTTGTA,-0.135
11,CCACTGGG,-0.261
12,AGGCAATC,0.0761
13,ACTTTTCA,0.118
14,ACGAATGC,0.0672
15,GTCGGCAC,-0.111
16,AGCCCAAT,0.0144
17,CTACCCAG,-0.0458
18,CCGCATCC,-0.234
19,TAGCCTGA,-0.118
20,CTGAAGCA,-0.107
21,ACAAAAGG,-0.08
22,AGGGTTCC,-0.153
23,CCGGCGAC,-0.151
24,ACAATAAC,0.169
25,GCAACTCA,-0.0183

row,Sequence,PBM E-score
1,CGGTTACG,-0.0599
2,CAGGGGAG,-0.254
3,CTCTTCGC,-0.132
4,ATTATAGA,0.123
5,CACTTAGG,-0.0938
6,GGCCCTTA,-0.0239
7,ACGTAATA,0.44
8,GGTACATA,0.0587
9,GATCGATA,0.132
10,ATTTATTC,0.212
11,ATTGGGTA,0.179
12,AATCGCAC,-0.188
13,AACACGAT,0.0988
14,CCACAGAA,-0.107
15,GAAAACGC,-0.0899
16,AGGGGGAT,-0.18
17,GAATTTTA,0.169
18,ATGTGAGG,0.00272
19,ACTTGCCA,-0.0462
20,CTCATAGC,-0.194
21,ACTAGAAC,0.12
22,GGAATGCA,0.102
23,ATCACCGC,-0.0486
24,ACTCGCCA,0.142
25,ACCGAGCA,0.0359

row,Sequence,PBM E-score
1,AGAGACTG,-0.246
2,AGTTAGAT,-0.0437
3,GTTTATCA,0.214
4,ACGCGTTA,0.0763
5,ACGAGTTG,0.0523
6,AATAGAAG,0.0527
7,CAGAGACC,-0.174
8,AAGTTCTG,0.0338
9,TAGCAGGA,-0.0369
10,ATTCTGCC,0.091
11,GGGCGAAA,0.0712
12,GGTTAGAC,-0.00764
13,AACCTCGG,-0.00934
14,CTGGATAC,-0.00517
15,CTGCTCGC,0.0118
16,CGCGCGGA,0.0752
17,CTCGCCTC,-0.0751
18,CTTAGAAA,0.0225
19,CTGTCCGA,0.00146
20,CATATCCA,-0.141
21,CACAAGAC,-0.122
22,AACAGGCT,-0.00531
23,CAAATCCC,-0.0466
24,AAGCCTGG,-0.0378
25,CCTGTGGC,-0.209

row,Sequence,PBM E-score
1,ATGGATCA,-0.0431
2,TGGCTTAA,0.162
3,AAGGTTCA,-0.0126
4,TCGCTAGA,-0.0924
5,GCGCTAGA,0.009
6,TAACTCTA,0.0162
7,CAGAACAC,-0.0794
8,AGGCCGAC,-0.101
9,TTGGCCAA,-0.0814
10,AAGAGTAT,-0.0379
11,AGCACAGC,-0.0999
12,AGCTGTGG,-0.0874
13,AATGTAGG,-0.0573
14,AGTCCCTG,-0.281
15,CCCTAGAC,-0.235
16,GACTTCGC,0.151
17,CTGTTTGA,0.0939
18,CGCTGTTC,-0.0746
19,AGGCTACG,-0.275
20,AGTTTTAA,0.146
21,GTAAAAAC,0.15
22,GCTCGGAA,-0.0694
23,GCTCCCTA,-0.209
24,CCTAAACG,-0.108
25,ACCGAACG,-0.0625

row,Sequence,PBM E-score
1,GCGCGAAA,0.132
2,ACACTCTG,-0.092
3,CCGCCACC,-0.155
4,ACTCTGCG,-0.0354
5,ATAGCGCG,0.192
6,CAGAACCG,0.0474
7,GAACTATC,0.069
8,CTAATCCA,0.041
9,CAACAAAC,0.0127
10,GTGCACAC,-0.151
11,TAGCCCAA,0.0307
12,CTCTGGAC,0.00343
13,CTCGGCTA,-0.0459
14,GCATAAGA,0.0573
15,ATAGTACC,0.102
16,GGTACCAC,-0.194
17,ATTTGGCG,0.0286
18,AGACTCGA,-0.0951
19,AAATTTTG,0.0174
20,ACTGTCCT,-0.012
21,AATTTCGG,0.0925
22,AAGTCAGC,0.0521
23,AGCACTGC,-0.0181
24,ATTGCCAG,0.203
25,AATACCAC,0.101

# Looked up above.
# PBM E-score with AAGTCAGC reads 0.0521
# PBM E-score with CTCGGCTA reads -0.0459
# PBM E-score with TAGCCCAA reads 0.0307
# PBM E-score with AATTTCGG reads 0.0925
# PBM E-score with ATAGTACC reads 0.102
# PBM E-score with ATTTGGCG reads 0.0286

# The list goes on:

row,Sequence,PBM E-score
1,GCTTCTCC,-0.109
2,CATCGGCG,-0.136
3,ACAGTGAC,0.0408
4,CGTCAATA,-0.0519
5,ATGCGGAC,-0.151
6,CTGGTACC,-0.197
7,TTCGCCAA,-0.264
8,CGGTGCCA,-0.26
9,AACTATCA,0.216
10,GTATTACA,0.291
11,CTGCGCGC,0.195
12,ACCTGAGC,-0.0503
13,ACGATTAA,0.0578
14,ACTCAGAT,0.0286
15,AGATGGCA,0.0107
16,TCCGCGCA,-0.0788
17,AAAGGTGG,0.0659
18,ACGGCCTA,-0.0243
19,AACAAGAA,0.253
20,AGTGGATG,-0.00012
21,ACAGACCC,-0.168
22,TACCTGAA,0.0994
